No constants are given. Whether binding was seen depends on the method and setting. Some entries that bind do so weakly or less than the wild type.
Target: γ-aminobutyric acid receptor type B (GABAB) subunit 2 (human) (UniProt O75899)
Assay: SDS-PAGE with autoradiography; 14C-leucine-labelled proteins from individual or equimolar coexpression in Sf21 cell-free lysate; acetone-precipitated, LDS sample buffer, SDS-PAGE; dimeric band quantified by densitometry (ImageQuant TL, data not shown)

B1: γ-aminobutyric acid receptor type B (GABAB) subunit 2 (receptor, UniProt O75899 42-941)
chain: WARGAPRPPPSSPPLSIMGLMPLTKEVAKGSIGRGVLPAVELAIEQIRNESLLRPYFLDLRLYDTECDNAKGLKAFYDAIKYGPNHLMVFGGVCPSVTSIIAESLQGWNLVQLSFAATTPVLADKKKYPYFFRTVPSDNAVNPAILKLLKHYQWKRVGTLTQDVQRFSEVRNDLTGVLYGEDIEISDTESFSNDPCTSVKKLKGNDVRIILGQFDQNMAAKVFCCAYEENMYGSKYQWIIPGWYEPSWWEQVHTEANSSRCLRKNLLAAMEGYIGVDFEPLSSKQIKTISGKTPQQYEREYNNKRSGVGPSKFHGYAYDGIWVIAKTLQRAMETLHASSRHQRIQDFNYTDHTLGRIILNAMNETNFFGVTGQVVFRNGERMGTIKFTQFQDSREVKVGEYNAVADTLEIINDTIRFQGSEPPKDKTIILEQLRKISLPLYSILSALTILGMIMASAFLFFNIKNRNQKLIKMSSPYMNNLIILGGMLSYASIFLFGLDGSFVSEKTFETLCTVRTWILTVGYTTAFGAMFAKTWRVHAIFKNVKMKKKIIKDQKLLVIVGGMLLIDLCILICWQAVDPLRRTVEKYSMEPDPAGRDISIRPLLEHCENTHMTIWLGIVYAYKGLLMLFGCFLAWETRNVSIPALNDSKYIGMSVYNVGIMCIIGAAVSFLTRDQPNVQFCIVALVIIFCSTITLCLVFVPKLITLRTNPDAATQNRRFQFTQNQKKEDSKTSTSVTSVNQASTSRLEGLQSENHRLRMKITELDKDLEEVTMQLQDTPEKTTYIKQNHYQELNDILNLGNFTESTDGGKAILKNHLDQNPQLQWNTTEPSRTCKDPIEDINSPEHIQRRLSLQLPILHHAYLPSIGGVDASCVSPCVSPTASPRHRHVPPSFRVMVSGL
modifications: 14C-leucine (autoradiography only); N-glycosylated
binding: binds weakly
